{"source": "PubChem BioAssay AID743121 | NCATS | 2013", "test": "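Knock-downs that sensitise breast cancer cells to camptothecin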 (primary screen)", "cell system": "MDA-MB-231 cells, a human breast cancer line", "knock-down reagent": "single siRNA against human genes, 20 nM siRNA (0.8 pmol per well)", "duration": "120 h (drug added 48 h after transfection, read 72 h later)", "challenge": "camptothecin 20 nM (about EC30) for 72 h; vehicle 0.1% DMSO in parallel plates", "measured": "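Cell viability by ATP luminescence (CellTiter-Glo) as % of non-targeting siRNA wells, and the log2 ratio of viability without drug over viability with camptothecin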", "direction": "log2 vehicle/camptothecin viability: higher = stronger sensitisation to camptothecin; viability with camptothecin: higher = more viable cells", "units": "viability with camptothecin in % of control", "call rule": "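Active genes have an RSA gene-level p-value below 0.001, computed from the ratios of their separate siRNAs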", "note": "In all, the deposit lists about 26,000 reagents; this is a random part of them. 167 of them (0.63%) count as active. 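Calls are per gene from RSA p-values that are not deposited; an individual active-marked siRNA can sensitise only weakly.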 Reagents against one gene are numbered here. Further read-outs or replicates are left out here."}
{"target": "FLOT2", "reagent": 1, "log2 vehicle/camptothecin viability": -0.227, "viability with camptothecin": 75, "Outcome": "inactive"}
{"target": "FLOT2", "reagent": 2, "log2 vehicle/camptothecin viability": 0.0431, "viability with camptothecin": 87.8, "Outcome": "inactive"}
{"target": "FLOT2", "reagent": 3, "log2 vehicle/camptothecin viability": 0.238, "viability with camptothecin": 55.2, "Outcome": "inactive"}
{"target": "PRMT7", "reagent": 1, "log2 vehicle/camptothecin viability": -0.0444, "viability with camptothecin": 49.5, "Outcome": "inactive"}
{"target": "PRMT7", "reagent": 2, "log2 vehicle/camptothecin viability": -0.287, "viability with camptothecin": 87.6, "Outcome": "inactive"}
{"target": "PRMT7", "reagent": 3, "log2 vehicle/camptothecin viability": -0.275, "viability with camptothecin": 85.5, "Outcome": "inactive"}
{"target": "PRMT7", "reagent": 4, "log2 vehicle/camptothecin viability": -0.214, "viability with camptothecin": 68.7, "Outcome": "inactive"}

Next part, starting with the last 2 of the part before.
{"target": "PRMT7", "reagent": 3, "log2 vehicle/camptothecin viability": -0.275, "viability with camptothecin": 85.5, "Outcome": "inactive"}
{"target": "PRMT7", "reagent": 4, "log2 vehicle/camptothecin viability": -0.214, "viability with camptothecin": 68.7, "Outcome": "inactive"}
{"target": "HKDC1", "reagent": 1, "log2 vehicle/camptothecin viability": -0.0796, "viability with camptothecin": 103, "Outcome": "inactive"}
{"target": "HKDC1", "reagent": 2, "log2 vehicle/camptothecin viability": 0.259, "viability with camptothecin": 78.6, "Outcome": "inactive"}
{"target": "HKDC1", "reagent": 3, "log2 vehicle/camptothecin viability": -0.195, "viability with camptothecin": 111, "Outcome": "inactive"}
{"target": "HKDC1", "reagent": 4, "log2 vehicle/camptothecin viability": -0.352, "viability with camptothecin": 34, "Outcome": "inactive"}
{"target": "GPR142", "reagent": 1, "log2 vehicle/camptothecin viability": 0.0786, "viability with camptothecin": 56.5, "Outcome": "inactive"}
{"target": "GPR142", "reagent": 2, "log2 vehicle/camptothecin viability": -0.23, "viability with camptothecin": 71, "Outcome": "inactive"}
{"target": "GPR142", "reagent": 3, "log2 vehicle/camptothecin viability": -0.449, "viability with camptothecin": 38, "Outcome": "inactive"}
{"target": "GPR142", "reagent": 4, "log2 vehicle/camptothecin viability": -0.717, "viability with camptothecin": 62.3, "Outcome": "inactive"}
